# In the supplement of paper PMC3334620:
# The full ranking holds about 33,000 sequences; the median of “E-score (-0.5 to 0.5)” is about -8e-05, and the highest 2% start at about 0.23. The list shows a part of the results.
# Target: T1, Nrg2 (UniProt P38082)
# T1 sequence: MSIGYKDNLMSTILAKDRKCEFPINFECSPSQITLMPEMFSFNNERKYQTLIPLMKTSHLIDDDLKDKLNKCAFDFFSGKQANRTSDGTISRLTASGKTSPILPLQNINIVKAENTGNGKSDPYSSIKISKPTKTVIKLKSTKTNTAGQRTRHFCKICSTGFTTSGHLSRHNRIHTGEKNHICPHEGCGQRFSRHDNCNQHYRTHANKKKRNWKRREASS
# Assay: PBM E-score (8-mer binding enrichment) (E-score (-0.5 to 0.5)); higher = stronger / more preferred TF binding
# Conditions: protein concentration: 100 nM; construct: GST-full length
# Summary of the method: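 For each ungapped eight-base word taken together with its reverse complement, the Universal PBM Analysis Suite assigned an E-score. Binding data came from GST-tagged yeast transcription factors, applied at about 100-200 nM, on universal all-10-mer Agilent arrays made double-stranded by primer extension. Fluorescent anti-GST marked bound protein, and scans were normalised with masliner.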
row,Sequence,PBM E-score
1,CACAGCGG,-0.0638
2,CAGAAGAG,-0.143
3,ACTATCTA,0.132
4,ATTCCGTG,0.126
5,GAGAAGAC,-0.0478
6,AGGAAGAT,0.0139
7,AAATTTGT,0.121
8,CCGTCGCG,-0.0239
9,GGTGTTTA,0.0473
10,CAGCCTCG,-0.0527
11,GAGCAAGA,-0.00443
12,GTTCGGGA,0.101
13,CCGAGAGG,-0.122
14,AGAATGTG,0.0423
15,CCTGCCCG,-0.0397
16,GTGAGATA,0.102
17,CTTTACCA,-0.131
18,CCGTGCCG,-0.129
19,CCACGAAG,-0.0617
20,ATCCGAGC,-0.0814
21,CACGCCAG,-0.0203
22,AGACTAAA,0.0838
23,CGTACAAA,0.0465
24,ATGTTTAC,0.0676
25,CACGTCAG,-0.0637

# Reformatted: results already given.
row | Sequence | PBM E-score
19 | CCACGAAG | -0.0617
21 | CACGCCAG | -0.0203

# Next part

row,Sequence,PBM E-score
1,ATAACTAA,0.0389
2,ACTGGTCC,-0.138
3,CGTAGGAG,-0.133
4,GGAGGTGA,-0.0454
5,TCCATCAA,0.126
6,AAACCTTG,-0.0667
7,GGCATTAA,-0.00455
8,GGCTGCAC,-0.0293
9,GATGCTTA,-0.132
10,AGTCAACC,-0.00933
11,GCGCAGAA,0.248
12,AAGTATCT,0.0414
13,CGCTCAAC,-0.0545
14,AGCAGGAT,-0.00267
15,ACCCCCGC,-0.239
16,ACATTCGA,-0.0286
17,ATAATAAT,0.056
18,GTTGGGAA,0.0635
19,GAACAGAC,-0.0624
20,AGCCGGGC,-0.233
21,GGGATATA,0.091
22,GAGCAGGC,-0.161
23,TAGGCCAA,-0.0144
24,ATCATAAG,-0.085
25,AGCCCCGA,-0.0985

row,Sequence,PBM E-score
1,ATTCGATC,0.0271
2,ACTGAAGT,0.0752
3,GACAGGCA,-0.0795
4,GTGGGTAA,-0.0326
5,CACGCGCC,0.00626
6,CGGTGTAA,-0.21
7,AAAGTATT,0.0932
8,GGTATAGA,-0.0387
9,TTATGGAA,0.063
10,GTCAGAGA,-0.0898
11,ATGCAAAC,0.14
12,ATTGACGA,0.0238
13,ACTTTTAC,0.163
14,CAGCCTGA,-0.0362
15,CCCATAAA,-0.0549
16,ACAGGAGT,-0.0584
17,AGCACGGC,0.0263
18,ACTTAGAA,-0.136
19,ATCCAATC,0.0524
20,GAGTCCCC,-0.0963
21,TACGCTGA,0.152
22,AGAAATAA,0.206
23,GCCATAGA,0.032
24,AATGGTGA,0.00084
25,CGGGCTGA,-0.151

row,Sequence,PBM E-score
1,AGACTTAA,-0.173
2,CGGCGAAA,0.101
3,AATCTTAA,0.0405
4,AATAAATG,0.158
5,AAACAATG,0.0814
6,ATCCGGAG,0.0282
7,CGCCTGTA,-0.0188
8,CATGTCTA,-0.0383
9,AGAAGTCG,-0.0691
10,GTGGGCTA,-0.14
11,CCCACCGG,-0.314
12,GTGGATGA,0.108
13,ACATGCAT,0.046
14,CAAGTTCC,-0.0773
15,AGATAGAG,0.128
16,GAACCAGA,-0.0744
17,GGCCCCGA,0.0348
18,ACTGTAAC,0.0921
19,CAGTTGAA,0.0235
20,ACGCATCA,0.0761
21,CGGTCAAG,-0.0764
22,AAGTAGCG,-0.0441
23,ATGGCACC,-0.102
24,CGCGTTGC,0.18
25,CTTGACCA,-0.1

row,Sequence,PBM E-score
1,AGTTTTAC,0.0462
2,CGGGTGCC,-0.111
3,GGGGGTCA,-0.381
4,AGAATTCG,0.06
5,TGTTTGAA,-0.00474
6,ACGTGGTG,-0.139
7,CGGCTAAA,0.0274
8,GACGCGTC,0.00341
9,CCTAACGA,-0.038
10,AACATGCG,0.101
11,CTCCCCGC,0.139
12,AGGAAGTA,0.067
13,AAAAAGAT,0.0537
14,AGGATGCG,-0.0569
15,GTTCCGTA,0.117
16,ACTAGAAG,-0.196
17,GTATACCA,0.0034
18,AAACACTA,0.0724
19,AAAAGGGA,-0.00461
20,CCGAAGAC,-0.00487
21,CGCGTTGA,0.0819
22,ATCCAGGC,0.0212
23,CTCTAGCC,-0.283
24,GGAAGCCC,-0.0876
25,CGTAGAGA,-0.00352

# Another view of part of the listing above:
row	Sequence	PBM E-score
6	ACGTGGTG	-0.139
7	CGGCTAAA	0.0274
8	GACGCGTC	0.00341
9	CCTAACGA	-0.038
10	AACATGCG	0.101

# Later entries.

row,Sequence,PBM E-score
1,CTCGCCGC,0.0721
2,AACCCGAG,-0.0529
3,GGTCCCTA,0.227
4,CGATATAC,0.113
5,CTGTCGTA,0.0568
6,GCCCTCAA,-0.252
7,ACCGGAGA,0.109
8,CTCTATTC,0.0238
9,GTTTTACA,0.036
10,GTAATGAC,-0.0415
11,ATCCACGC,-0.113
12,CACTGCGA,-0.0817
13,ACGTGCTA,-0.181
14,CTTCTCAA,-0.0328
15,GCGTACCC,0.00443
16,ACCTTTAT,-0.159
17,CTGGGTTC,0.172
18,AGGAGACA,-0.0211
19,GTAAGAGA,-0.079
20,CAATTCGC,0.277
21,GGCGGAGA,0.0596
22,GCATCGGC,-0.07
23,GTAGGTTA,0.0569
24,GTCTAAGA,0.0993
25,CGCCAACA,-0.0246

row,Sequence,PBM E-score
1,CTTCTACA,-0.0433
2,GCAGGGAA,0.238
3,CTTGTAAA,0.0911
4,AGCTTCCT,0.0472
5,AATCGGAA,0.242
6,AAAACCGT,-0.108
7,GGGGAGGA,-0.186
8,ATGGTTGG,-0.17
9,AGTAATGG,0.074
10,ATTTCGTG,0.223
11,AGGACCCG,0.0935
12,GAACCTTA,0.0892
13,AACGCAGT,-0.131
14,TCGTCCCA,0.0993
15,ATAGCCGA,0.143
16,CTAACAGC,-0.0587
17,AATATATA,0.0908
18,CAGCCCTA,0.127
19,ATTTGTAA,0.118
20,CATAGACC,-0.188
21,ATGCTGTA,-0.0825
22,GAGTATCC,-0.0384
